# Primary screen of a compound library

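Assay on Mycobacterium tuberculosis, filed only as a heat shock assay from Cornell; the read-out is not stated. The concentration is filed as 10 mM, unlikely as a test dose, so the dose is not known. Higher reads as stronger inhibition (inferred: compounds with an IC50 in retests scored well above the rest). Size under these conditions: about 69,000 compounds, about 930 of them at 50% or above in at least one test.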

The filed quantity is “Percent Effect” (%).
How 0% and 100% were set is not recorded. Most values in the screen are low, and negative values occur.
This is an unselected part of the compounds tested.

O=C(Cc1ccc(-n2cccn2)cc1)N1CCN2CCCCC2C1 (centres undefined) read -5.13%. CSc1ccc(-c2nc(CN3CCC(C(N)=O)CC3)c(C)o2)cc1 read 1.344%. Result for O=C(Nc1ccc(-n2cccn2)cc1)N1CCOCC(O)C1 (centres undefined) was -26.6%. CN(CCc1ccccn1)C(=O)c1ccccc1F read 10.09%. COc1ccc(CNC(C)c2ccc3[nH]c(=O)[nH]c3c2)cc1 (centres undefined) gave 10.16%. With [H][C@@]12OCCN(Cc3ccc(F)cc3)[C@@]1([H])CC[C@H]2OCC the screen gave -7.776%. CC(C)Cc1cc(C(=O)N2CCCC(n3cncn3)C2)[nH]n1 (centres undefined) gave -1.027%. Result for O=C(O)C(F)(F)F.[H][C@@]12OCCN(C(=O)c3cc(C)[nH]c3C)[C@@]1([H])CC[C@H]2Oc1ccccn1 was 31.84%.

COc1ccc(N2CCN(C(=O)Cn3nc(C)c(C)c3C)C(C)C2)cc1 (centres undefined) gave -5.557%. For Cc1ccc(NC(=O)CNC(C)Cc2ccsc2)cc1F (centres undefined) the result was -99.84%. O=C(O)[C@@H]1CN(C(=O)c2ccc3[nH]nnc3c2)C[C@H]1c1cccc(F)c1 read -1.167%. CC(NC(=O)NCCCN(C)S(C)(=O)=O)c1cccc(Cl)c1 (centres undefined) read 6.589%. CN(Cc1cccs1)Cc1nnsc1Cl gave -5.88%. Result for Cc1sc2c(C3CCCN(C)C3)nc(C)n2c1C (centres undefined) was -27.27%. For Cl.O=C1CC2(CCNCC2)C(=O)N1Cc1ccc(F)cc1 the result was -13.65%. Result for Cn1cc(Cl)cc1C(=O)N1CCC2(CCCN(CC3CC3)C2=O)C1 (centres undefined) was -26.93%.

[H][C@@]12CCN(Cc3scnc3C)C[C@]1(C(=O)N1CCCC1)CCO2 read 19.44%. Cn1ccnc1SCCNC(=O)c1cc(S(N)(=O)=O)ccc1F read -3.012%. With O=C1CC(N2CCN(c3ccc(F)cc3)CC2)C(=O)N1Cc1cccs1 (centres undefined) the screen gave 9.961%. O=c1[nH]c(N2CCOCC2)nc2c1CN(Cc1cccnc1)CC2 read -8.155%. Result for O=C(O)C(F)(F)F.[H][C@@]12CCN(S(=O)(=O)c3ccc(F)cc3)C[C@]1([H])[C@@H](CN(C)C)OC2 was -11.95%. O=C(c1c2c(N3CCCC3)ncnc2n2ccccc12)N1CCCC1 gave -18.62%. With COc1cccc(CN(C(=O)Nc2nncs2)C2CCC(O)CC2)c1 (centres undefined) the screen gave 36.77%. CC(=O)NCCNC(=O)CN1CCOC(Cn2cccn2)C1 (centres undefined) gave 12.57%.

For CC(NC(=O)CN(C)C(C)C)c1ccc(Oc2cccnc2)c(F)c1 (centres undefined) the result was -4.172%. For CC(Nc1ccn(CCS(C)(=O)=O)n1)c1ccc(C#N)cc1 (centres undefined) the result was 2.165%. Result for Cc1cc(NC(=O)CN2CCCC2c2noc(C(C)C)n2)no1 (centres undefined) was -28.29%. CC(C)C1CN(c2ncccn2)CCC(=O)N1Cc1ccc(F)cc1 (centres undefined) gave 0.445%. Cc1[nH]ncc1CCCNC(=O)Nc1ccc(C#N)cc1 gave 4.075%. For CC(C1CC1)n1nccc1NC(=O)CN(C)C(=O)OC(C)(C)C (centres undefined) the result was -21.19%. Cc1nc(CN2CCC3(CCCN(Cc4cccnc4)C3)C2=O)cs1.O=C(O)C(F)(F)F.O=C(O)C(F)(F)F.O=C(O)C(F)(F)F (centres undefined) gave -21.24%. For Cc1ccc(C(=O)NCCS(C)(=O)=O)c(=O)[nH]1 the result was 2.272%.

With O=C(O)CC(O)(CC(=O)O)C(=O)O.[H][C@@]12CC[C@@](O)(c3ccc(C)cn3)[C@]1([H])CN(Cc1cccc(F)c1F)C2 the screen gave 2.948%. For Cc1cccc(C(=O)NCCS(=O)(=O)Cc2ccccc2)c1 the result was -7.069%. For CNC(=O)CNC(=O)Nc1cc(-c2ccccc2)ns1 the result was -11.77%. O=C(NCC(F)(F)F)C1CSCN1S(=O)(=O)c1ccc(F)cc1 (centres undefined) read -3.252%. For Cn1cc(CNC(=O)Nc2ccc(S(=O)(=O)C(F)F)cc2)cn1 the result was 10.18%. O=C(Cc1cccnc1)N1CCC2(CC1)CCN(C1CCOC1)C2.O=C(O)C(F)(F)F.O=C(O)C(F)(F)F (centres undefined) read -61.49%. CN(C)c1nc2c(c(=O)[nH]1)Cc1ccccc1OC2 read -7.747%. Result for Cc1cc(N2CCc3cnc(C)nc3C2)n2nc(C(F)(F)F)nc2n1 was 3.062%.

With O=C(O)C(F)(F)F.O=C(O)C(F)(F)F.c1cncc(-c2nnn3c2COCC(CNCC2CCOCC2)C3)c1 (centres undefined) the screen gave -15.79%. Cc1cc(C(C)NC(=O)CCN2C(=O)c3ccccc3C2=O)c(C)o1 (centres undefined) gave -6.335%. For COc1ccc(-c2ccnc3nc(N4CCCCC4)[nH]c(=O)c23)cc1 the result was -6.907%. Result for CC1CCN(S(=O)(=O)c2cccn(CC(=O)NC(C)(C)C)c2=O)CC1 was 9.557%. With CCOC(=O)C1CCN(C(=O)Cc2c(C)nc(C)[nH]c2=O)CC1 the screen gave -15.15%. For [H][C@@]12CCN(C(=O)Cc3csc4ccccc34)C[C@]1([H])OCCNC2=O the result was 1.117%. Result for COCCN(Cc1ccc(F)cc1Cl)C(=O)c1cnn(C)c1C was -34.31%. Cc1nn(C)c2nc(N3CCC(C(O)Cc4ccccc4)CC3)sc12 (centres undefined) read -31.43%.

With OCCN(Cc1cccnc1)c1ncc(Br)cn1 the screen gave -21.44%. For CN(C(=O)Cc1ccccc1F)C1CCN(c2ccccn2)CC1 the result was -8.507%. For Cc1ccc(Cl)cc1N1CCC(CNC(=O)CCn2ccnc2)C1 (centres undefined) the result was 172.3%. With CC(=O)N[C@H]1CCO[C@@H](c2cccc(NC(=O)c3ccc(=O)[nH]n3)c2)C1 the screen gave -21.93%. With Cn1nc(COCC2CC2)c2c1CN(C(=O)c1ccno1)CC2.O=C(O)C(F)(F)F the screen gave 0.05167%. With [H][C@@]12COC[C@H](C(=O)N3CCOCC3)[C@]1([H])CN(CC1CC1)C2 the screen gave -24.43%. For COc1ccc(C2CC(=O)Nc3c2cnn3C2CCCC2)cc1 (centres undefined) the result was 13.07%. With CC(Cn1ccnc1)NC(=O)Cc1ccc2c(c1)OCCO2 (centres undefined) the screen gave -23.76%.

From ChEMBL document CHEMBL3988442, “University of Dundee, Small-Polar-MMV Screening Library” (2021).